Data as given in PubChem BioAssay AID1508588 (Peter MacCallum Cancer Centre, 2020)
Screen: 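Genome-wide search for knock-downs that heighten vemurafenib action in melanoma cells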 (primary screen). Cells: human WM266.4 melanoma cells (BRAF V600 mutant). Reagents: siRNA pool against human genes, 40 nM. Timing: 96 h from transfection to read-out. Treatment: vemurafenib 300 nM (about IC25), added 48 h after transfection, for 48 h; comparison arm got DMSO vehicle only. Read-out: 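Ratios to non-targeting siRNA for cell gain, counted as DAPI nuclei after minus before drug and averaged over two replicates, and for absorbance-read medium lactate per cell; both binned into fold-change classes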. Scale: cell gain with vemurafenib: higher = more cell gain than with non-targeting siRNA; lactate per cell with vemurafenib: higher = more lactate made per cell. Hit rule: 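Enhancement is called by pairing each knock-down's vehicle-arm and drug-arm fold-change classes for viability or glycolysis; which class combinations qualify is not given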. Meaning of the calls: active = enhances vemurafenib effect; inactive = no enhancement seen.
Here is an unselected part of about 18,000 reagents. Of all reagents, 790 (4.4%) got an active call. 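Calls rest on a combination of fold-change classes in drug and vehicle arms, not all shown here.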

| gene | cell gain with vemurafenib | lactate per cell with vemurafenib | Outcome |
| --- | --- | --- | --- |
| CRTC2 | 0.51 | 1.03 | inactive |
| CPXM1 | 0.35 | 0.37 | inactive |
| SFRP1 | 0.5 | 1.44 | inactive |
| TSPAN8 | 0.22 | 0.84 | inactive |
| AKAP13 | 1.09 | 1.04 | inactive |
| ALG12 | 0.37 | 1.86 | inactive |
| ITGA5 | 1.05 | 0.74 | inactive |
| GBP2 | 1.19 | 0.67 | inactive |
| MIMS2 | 0.23 | 0.93 | inactive |
| SPRYD4 | 0.55 | 0.99 | inactive |
| TRIM33 | 0.98 | 0.84 | inactive |
| KRTAP10-8 | 0.37 | 2.37 | inactive |
| FEN1 | 0.53 | 0.93 | inactive |
| PMS2P5 | 0.83 | 0.96 | inactive |
| BTG4 | 0.26 | 1.86 | inactive |
| PLEKHM1 | 0.75 | 0.72 | inactive |
| ATP2B4 | 1.25 | 0.74 | inactive |
| SHKBP1 | 0.63 | 1.12 | inactive |
| SPINT4 | 0.84 | 1.21 | inactive |
| LRRC4C | 0.92 | 0.84 | inactive |
| XRCC6 | 0.41 | 1.16 | inactive |
| SRPX | 0.23 | 1.62 | inactive |
| RIC8A | 0.53 | 1.34 | inactive |
| PABIR1 | 0.84 | 0.72 | inactive |
| PERP | 0.25 | 0.84 | inactive |
| IQCF3 | 0.6 | 1.05 | inactive |
| ZNF565 | 1.18 | 0.38 | inactive |
| GPRC5B | 0.28 | 2.9 | inactive |
| CERS2 | 0.57 | 0.93 | inactive |
| CCT4 | 0.8 | 0.71 | inactive |
| SIX3 | 0.5 | 0.46 | active |
| ATP5F1B | 0.14 | 2.21 | inactive |
| LDHA | 0.65 | 0.88 | inactive |
| NFKBID | 0.56 | 1.06 | inactive |
| MCHR2 | 0.22 | 0.76 | inactive |
| MAP1B | 0.71 | 0.49 | inactive |
| PAM16 | 0.54 | 0.46 | inactive |
| CDR2L | 1.22 | 0.36 | inactive |
| OPN1SW | 0.01 | 2.84 | inactive |
| SPHKAP | 0.47 | 1.93 | inactive |
| NOX1 | 0.53 | 1.4 | inactive |
| LARP1 | 0.74 | 0.72 | inactive |
| PI4KB | 0.52 | 0.62 | inactive |
| KCTD17 | 0.13 | 1.35 | inactive |
| COG4 | 0.81 | 0.65 | inactive |
| GATD3 | 0.98 | 0.5 | inactive |
| UGT1A6 | 0.93 | 0.68 | inactive |
| AKT1 | 0.82 | 1.7 | inactive |
| HS6ST3 | 0.83 | 0.57 | inactive |
| ATAT1 | 0.54 | 1.45 | inactive |
| TSACC | 0.16 | 2.84 | inactive |
| SMAD3 | 0.56 | 0.88 | inactive |
| FAM229B | 0.07 | 1.86 | inactive |
| KBTBD6 | 1.08 | 0.88 | inactive |
| HDAC8 | 0.68 | 1.75 | inactive |
| UBE2F | -0.02 | 3.59 | inactive |
| FMR1 | 0.12 | 1.06 | inactive |
| CALML6 | 0.67 | 0.99 | inactive |
| DLG3 | 0.77 | 1.17 | inactive |
| PARVG | 0.2 | 1.17 | inactive |
| GTPBP8 | 0.25 | 0.93 | inactive |
| IL10RA | 0.25 | 0.77 | inactive |
| SPRR2B | 0.88 | 0.73 | inactive |
| TTLL10 | 0.55 | 1.13 | inactive |
| ADAM22 | 1.03 | 0.63 | inactive |
| CHD3 | 0.26 | 1.36 | inactive |
| NOX3 | 0.48 | 1.56 | inactive |
| STRBP | 0.59 | 0.14 | active |
| NAP1L5 | 0.67 | 1.44 | inactive |
| ZNF319 | 0.6 | 0.7 | inactive |
| SLC22A3 | 0.27 | 1.06 | inactive |
| PPP1R1B | 0.91 | 0.51 | inactive |
| VPS37A | 0.83 | 0.56 | inactive |
| OR6K6 | 0.65 | 0.24 | inactive |
| OCLM (retired record) | 0.81 | 1.31 | inactive |
| PMPCA | 0.43 | 0.62 | inactive |
| PIM3 | 0.63 | 1.48 | inactive |
| KLK11 | 0.32 | 0.71 | inactive |
| ZNF658 | 0.54 | 0.98 | inactive |
| PI16 | 0.89 | 0.82 | inactive |
| SLC17A4 | 0.52 | 1.02 | inactive |
| MACROH2A1 | 0.99 | 0.41 | active |
| CABP5 | 0.44 | 0.4 | inactive |
| SNCAIP | 0.54 | 0.24 | inactive |

11 of these entries, reformatted:
{"gene": "LARP1", "cell gain with vemurafenib": 0.74, "lactate per cell with vemurafenib": 0.72, "Outcome": "inactive"}
{"gene": "PI4KB", "cell gain with vemurafenib": 0.52, "lactate per cell with vemurafenib": 0.62, "Outcome": "inactive"}
{"gene": "KCTD17", "cell gain with vemurafenib": 0.13, "lactate per cell with vemurafenib": 1.35, "Outcome": "inactive"}
{"gene": "COG4", "cell gain with vemurafenib": 0.81, "lactate per cell with vemurafenib": 0.65, "Outcome": "inactive"}
{"gene": "GATD3", "cell gain with vemurafenib": 0.98, "lactate per cell with vemurafenib": 0.5, "Outcome": "inactive"}
{"gene": "UGT1A6", "cell gain with vemurafenib": 0.93, "lactate per cell with vemurafenib": 0.68, "Outcome": "inactive"}
{"gene": "AKT1", "cell gain with vemurafenib": 0.82, "lactate per cell with vemurafenib": 1.7, "Outcome": "inactive"}
{"gene": "HS6ST3", "cell gain with vemurafenib": 0.83, "lactate per cell with vemurafenib": 0.57, "Outcome": "inactive"}
{"gene": "ATAT1", "cell gain with vemurafenib": 0.54, "lactate per cell with vemurafenib": 1.45, "Outcome": "inactive"}
{"gene": "TSACC", "cell gain with vemurafenib": 0.16, "lactate per cell with vemurafenib": 2.84, "Outcome": "inactive"}
{"gene": "SMAD3", "cell gain with vemurafenib": 0.56, "lactate per cell with vemurafenib": 0.88, "Outcome": "inactive"}
